# Results from one PubChem assay

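Selective DUX4 reporter inhibition in doxycycline-induced 293T-iDUX4 cells, scored as Gaussia percent activity minus Italica percent activity, after a 24-hour treatment. The test concentration is not given here. Percent difference between the Gaussia and Italica channels; more negative values mean more selective suppression of the DUX4 reporter, and higher values mean less activity.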

Values are in %. How 0% and 100% were set is not given here. Common to all entries: measured here: selective DUX4 reporter inhibition. This is a side read-out of the assay, for part of the compounds, not drawn at random.

compound	Gaussia minus Italica difference (%)
C[C@H](CO)N1C[C@H](C)[C@@H](CN(C)Cc2ccc(Oc3ccccc3)cc2)OCc2ccccc2-c2c(n(C)c3ccccc23)C1=O	-19.99
COc1ccc2c3c([nH]c2c1)[C@@H](CO)N(S(=O)(=O)c1ccc(C)cc1)CC31CCN(Cc2nccs2)CC1	-18.81
COc1ccc2c3c(n(C)c2c1)[C@@H](CO)N(Cc1ccccc1)CC31CN(C(=O)c2ccccc2F)C1	-9.331
N#Cc1ccc(-c2ccc3c(c2)[C@@H]2[C@@H](CCN2C(=O)c2ccc4c(c2)OCO4)[C@@H](CO)N3)cc1	-2.18
O=C(C[C@H]1CC[C@H]2[C@@H](COC[C@H](O)CN2Cc2cccc(F)c2)O1)NCC1CCCCC1	-11.9
CN1c2ccc(-c3cccc(C#N)c3)cc2[C@H]2[C@H](CCN2S(=O)(=O)c2ccccc2F)[C@@H]1CO	-10.9
O=C(C[C@H]1C=C[C@H](NC(=O)c2ccncc2)[C@@H](CO)O1)NCC1CC1	-14.06
O=C(c1cccc(F)c1)N1CCCCN2[C@@H](CO)[C@@H](c3ccc(/C=C/c4ccccc4)cc3)[C@@H]2C1	3.68
COc1cc(CN2CC3(CCN(C(=O)Nc4cccc(F)c4)CC3)c3c(n(C)c4cc(OC)ccc34)[C@@H]2CO)cc(OC)c1	-21.92
O=C(C[C@@H]1CC[C@H]2[C@@H](COC[C@H](O)CN2Cc2cccc(-c3ccncc3)c2)O1)N1CCN(c2ccccc2)CC1	3.991
CCS(=O)(=O)N1CC2(CN(Cc3cccc(Cl)c3)[C@@H](CO)c3c2c2ccc(OC)cc2n3C)C1	8.088
C[C@H]1CN([C@@H](C)CO)C(=O)c2ccccc2-c2ccccc2CO[C@@H]1CN(C)C(=O)Nc1cccc(C(F)(F)F)c1	-14.29
COc1ccc(C#Cc2ccc([C@@H]3[C@@H](CO)N4CCCCN(C(=O)c5ccncc5)C[C@@H]34)cc2)cc1	-17.22
OC[C@@H]1[C@@H](c2ccccc2)C2(CN(Cc3nccs3)C2)N1Cc1ccccc1	-0.3793
O=S(=O)(c1cccc(F)c1)N1CC[C@H]2[C@H](CO)Nc3ccc(-c4cccc(F)c4)cc3[C@H]21	-12.75
CCS(=O)(=O)N1CC2(CN(Cc3ccc4c(c3)OCO4)[C@@H](CO)c3c2c2ccc(OC)cc2n3C)C1	-12.57
O=C1CN(S(=O)(=O)Cc2ccccc2)C[C@@H]2[C@@H](c3ccc(C#Cc4ccccc4)cc3)[C@@H](CO)N12	23.7
Cc1ccc(S(=O)(=O)N2C[C@@H]3N[C@H](C2)[C@@H]3c2ccc(-c3cccc(C)c3)cc2)cc1	2.818
O=C(NC1Cc2ccccc2C1)[C@H]1[C@H](CO)[C@H]2Cn3c(ccc(C4=CCCCC4)c3=O)[C@@H]1N2CC1CC1	-9.956
O=C(C[C@H]1CC[C@H]2[C@@H](COC[C@@H](O)CN2CCC(F)(F)F)O1)NCc1ccc(Oc2ccccc2)cc1	-7.889
COCC(=O)N1CCCCN2[C@H](C1)[C@H](c1ccc(C#Cc3ccccc3)cc1)[C@@H]2CO	-7.552
COc1ccc(S(=O)(=O)N2CC[C@H]3[C@H](CO)Nc4ccc(C#Cc5cccnc5)cc4[C@H]32)cc1	-1.021
COc1ccc2c3c([nH]c2c1)[C@@H](CO)N(Cc1ccccc1)CC31CN(C(C)=O)C1	-6.591
C[C@@H]1CN([C@H](C)CO)C(=O)c2c(c3ccccc3n2C)-c2ccccc2CO[C@@H]1CN(C)C(=O)Nc1cccc(C(F)(F)F)c1	-0.03782
Cc1cccc(S(=O)(=O)N2CCCCN3[C@@H](CO)[C@@H](c4ccc(-c5ccncc5)cc4)[C@@H]3C2)c1	3.547
COc1ccc2c3c([nH]c2c1)[C@@H](CO)N(Cc1ccccc1OC)CC31CN(C)C1	-7.569
C[C@H](CO)N1C[C@H](C)[C@@H](CN(C)CC2CCCCC2)OCc2ccccc2-c2c(n(C)c3ccccc23)C1=O	-13.06
O=C(C[C@@H]1CC[C@@H]2[C@H](COC[C@H](O)CN2CC2CCCCC2)O1)NCc1ccc(F)cc1	-7.897
O=C(C[C@@H]1CC[C@H]2[C@@H](COC[C@@H](O)CN2Cc2ccccc2F)O1)N[C@H]1CCN(Cc2ccccc2)C1	-6.518
CC(C)CC#Cc1ccc([C@H]2[C@@H](CO)N3C(=O)CN(C(=O)Nc4ccc(F)cc4)C[C@@H]23)cc1	5.115
COc1cccc(-c2ccc3c(c2)[C@H]2[C@H](CCN2S(=O)(=O)c2cccc(OC)c2)[C@H](CO)N3)c1	-0.7267
C[C@H](CO)N1C[C@H](C)[C@H](CN(C)Cc2ccc(C(F)(F)F)cc2)OCc2ccccc2-c2ccccc2C1=O	-8.692

For reference, 3 entries once more:

With OC[C@@H]1[C@@H](c2ccccc2)C2(CN(Cc3nccs3)C2)N1Cc1ccccc1 the assay gave Gaussia minus Italica difference -0.3793%.
With Cc1ccc(S(=O)(=O)N2C[C@@H]3N[C@H](C2)[C@@H]3c2ccc(-c3cccc(C)c3)cc2)cc1 the assay gave Gaussia minus Italica difference 2.818%.
With O=C(C[C@H]1CC[C@H]2[C@@H](COC[C@H](O)CN2Cc2cccc(F)c2)O1)NCC1CCCCC1 the assay gave Gaussia minus Italica difference -11.9%.

Data taken from PubChem BioAssay AID1224904, deposited by Broad Institute (2016).